Here are results for three molecules from publication PMC5982823, “The Pseudokinase Domain of Saccharomyces cerevisiae Tra1 Is Required for Nuclear Localization and Incorporation into the SAGA and NuA4 Complexes” (G3: Genes|Genomes|Genetics, 2018).

Sequences of proteins named here, by UniProt entry; tags and fusion partners are left off.
UniProt P38811: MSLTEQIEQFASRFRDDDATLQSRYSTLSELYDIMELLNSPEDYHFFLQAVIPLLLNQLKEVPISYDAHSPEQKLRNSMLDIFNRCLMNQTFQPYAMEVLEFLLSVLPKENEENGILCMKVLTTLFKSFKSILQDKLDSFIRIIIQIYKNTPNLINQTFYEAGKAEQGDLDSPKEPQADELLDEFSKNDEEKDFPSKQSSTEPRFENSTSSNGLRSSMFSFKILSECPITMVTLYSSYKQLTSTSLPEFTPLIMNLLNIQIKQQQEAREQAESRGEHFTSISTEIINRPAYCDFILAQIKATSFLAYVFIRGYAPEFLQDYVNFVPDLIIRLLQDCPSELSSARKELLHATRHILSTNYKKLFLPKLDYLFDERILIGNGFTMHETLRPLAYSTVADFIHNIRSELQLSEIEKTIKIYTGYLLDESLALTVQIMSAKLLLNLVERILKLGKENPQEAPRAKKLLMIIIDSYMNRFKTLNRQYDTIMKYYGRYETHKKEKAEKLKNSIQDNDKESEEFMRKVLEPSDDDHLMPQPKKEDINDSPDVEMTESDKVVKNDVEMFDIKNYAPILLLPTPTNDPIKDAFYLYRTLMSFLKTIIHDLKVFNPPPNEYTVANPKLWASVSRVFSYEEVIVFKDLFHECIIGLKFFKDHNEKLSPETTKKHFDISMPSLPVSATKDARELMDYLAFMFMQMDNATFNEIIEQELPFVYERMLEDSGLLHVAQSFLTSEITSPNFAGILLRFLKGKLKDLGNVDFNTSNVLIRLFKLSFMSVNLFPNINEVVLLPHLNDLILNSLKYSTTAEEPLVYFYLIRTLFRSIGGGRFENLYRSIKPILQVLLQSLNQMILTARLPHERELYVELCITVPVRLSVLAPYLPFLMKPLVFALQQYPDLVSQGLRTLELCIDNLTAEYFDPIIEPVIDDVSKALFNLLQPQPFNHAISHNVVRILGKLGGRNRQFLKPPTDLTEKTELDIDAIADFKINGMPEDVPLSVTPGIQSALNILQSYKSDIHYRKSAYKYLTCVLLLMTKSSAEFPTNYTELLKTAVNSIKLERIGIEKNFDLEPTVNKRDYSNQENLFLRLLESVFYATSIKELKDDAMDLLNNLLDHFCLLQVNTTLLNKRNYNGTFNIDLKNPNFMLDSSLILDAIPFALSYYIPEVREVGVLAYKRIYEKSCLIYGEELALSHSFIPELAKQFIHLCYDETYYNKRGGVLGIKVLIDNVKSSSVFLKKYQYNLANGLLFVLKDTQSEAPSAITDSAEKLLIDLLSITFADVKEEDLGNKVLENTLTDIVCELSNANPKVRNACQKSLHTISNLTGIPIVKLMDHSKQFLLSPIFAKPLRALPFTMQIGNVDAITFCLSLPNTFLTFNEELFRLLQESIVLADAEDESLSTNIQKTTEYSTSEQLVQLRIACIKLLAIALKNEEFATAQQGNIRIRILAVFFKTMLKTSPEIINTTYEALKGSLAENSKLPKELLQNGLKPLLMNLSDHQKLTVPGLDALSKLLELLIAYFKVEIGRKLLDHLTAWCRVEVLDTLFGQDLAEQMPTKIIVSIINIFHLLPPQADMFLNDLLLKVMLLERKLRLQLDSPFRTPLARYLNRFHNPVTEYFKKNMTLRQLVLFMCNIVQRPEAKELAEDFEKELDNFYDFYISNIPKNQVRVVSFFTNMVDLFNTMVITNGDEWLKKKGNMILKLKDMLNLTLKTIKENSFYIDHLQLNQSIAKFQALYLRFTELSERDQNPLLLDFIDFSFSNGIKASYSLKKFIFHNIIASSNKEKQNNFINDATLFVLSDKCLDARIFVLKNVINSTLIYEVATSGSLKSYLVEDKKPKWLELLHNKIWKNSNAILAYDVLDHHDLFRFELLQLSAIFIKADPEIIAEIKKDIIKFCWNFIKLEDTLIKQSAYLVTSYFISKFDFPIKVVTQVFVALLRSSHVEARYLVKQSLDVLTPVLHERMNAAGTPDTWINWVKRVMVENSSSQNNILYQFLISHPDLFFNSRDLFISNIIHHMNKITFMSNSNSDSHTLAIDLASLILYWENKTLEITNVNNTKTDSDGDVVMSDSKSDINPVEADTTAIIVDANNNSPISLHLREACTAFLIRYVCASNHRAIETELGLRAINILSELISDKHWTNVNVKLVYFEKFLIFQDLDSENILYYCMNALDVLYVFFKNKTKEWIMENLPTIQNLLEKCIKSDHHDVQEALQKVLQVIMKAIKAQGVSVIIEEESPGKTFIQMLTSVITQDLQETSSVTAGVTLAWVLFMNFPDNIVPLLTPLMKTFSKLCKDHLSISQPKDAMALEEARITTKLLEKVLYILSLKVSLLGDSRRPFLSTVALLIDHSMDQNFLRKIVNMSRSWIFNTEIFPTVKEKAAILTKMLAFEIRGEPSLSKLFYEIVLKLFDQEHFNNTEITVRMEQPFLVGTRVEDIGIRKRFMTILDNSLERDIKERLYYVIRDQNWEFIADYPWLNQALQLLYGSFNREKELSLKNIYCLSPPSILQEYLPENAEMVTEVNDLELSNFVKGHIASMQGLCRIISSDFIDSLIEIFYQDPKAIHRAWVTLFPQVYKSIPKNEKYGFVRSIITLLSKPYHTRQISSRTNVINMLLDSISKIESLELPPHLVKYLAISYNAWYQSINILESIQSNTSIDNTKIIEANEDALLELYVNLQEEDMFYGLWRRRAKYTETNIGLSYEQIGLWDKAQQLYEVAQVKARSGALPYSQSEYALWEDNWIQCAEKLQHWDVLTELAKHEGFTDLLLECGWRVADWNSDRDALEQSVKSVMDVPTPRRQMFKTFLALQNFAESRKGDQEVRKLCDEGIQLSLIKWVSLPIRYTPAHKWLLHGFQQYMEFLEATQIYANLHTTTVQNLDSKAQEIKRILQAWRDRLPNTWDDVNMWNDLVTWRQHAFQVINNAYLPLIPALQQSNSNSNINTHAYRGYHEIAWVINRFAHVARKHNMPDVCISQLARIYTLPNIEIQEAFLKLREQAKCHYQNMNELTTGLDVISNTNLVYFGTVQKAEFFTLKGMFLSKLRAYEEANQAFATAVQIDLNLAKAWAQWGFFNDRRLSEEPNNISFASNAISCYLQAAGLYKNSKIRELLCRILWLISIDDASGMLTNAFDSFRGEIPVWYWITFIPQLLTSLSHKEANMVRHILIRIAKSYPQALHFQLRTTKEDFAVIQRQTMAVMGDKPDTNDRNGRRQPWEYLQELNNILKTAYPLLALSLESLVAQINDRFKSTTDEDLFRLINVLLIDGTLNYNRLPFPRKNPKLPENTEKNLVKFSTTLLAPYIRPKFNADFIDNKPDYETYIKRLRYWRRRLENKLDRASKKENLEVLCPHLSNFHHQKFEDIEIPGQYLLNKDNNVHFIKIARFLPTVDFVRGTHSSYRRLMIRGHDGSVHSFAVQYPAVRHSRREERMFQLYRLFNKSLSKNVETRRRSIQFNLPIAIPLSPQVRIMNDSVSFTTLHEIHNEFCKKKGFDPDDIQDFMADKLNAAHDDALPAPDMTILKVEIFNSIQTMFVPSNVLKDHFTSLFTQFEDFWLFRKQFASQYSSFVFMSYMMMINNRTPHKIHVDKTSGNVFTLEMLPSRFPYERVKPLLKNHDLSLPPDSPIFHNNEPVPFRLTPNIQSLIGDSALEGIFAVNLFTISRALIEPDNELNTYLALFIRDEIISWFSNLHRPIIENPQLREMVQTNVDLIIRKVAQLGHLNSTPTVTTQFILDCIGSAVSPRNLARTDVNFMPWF
UniProt P35177: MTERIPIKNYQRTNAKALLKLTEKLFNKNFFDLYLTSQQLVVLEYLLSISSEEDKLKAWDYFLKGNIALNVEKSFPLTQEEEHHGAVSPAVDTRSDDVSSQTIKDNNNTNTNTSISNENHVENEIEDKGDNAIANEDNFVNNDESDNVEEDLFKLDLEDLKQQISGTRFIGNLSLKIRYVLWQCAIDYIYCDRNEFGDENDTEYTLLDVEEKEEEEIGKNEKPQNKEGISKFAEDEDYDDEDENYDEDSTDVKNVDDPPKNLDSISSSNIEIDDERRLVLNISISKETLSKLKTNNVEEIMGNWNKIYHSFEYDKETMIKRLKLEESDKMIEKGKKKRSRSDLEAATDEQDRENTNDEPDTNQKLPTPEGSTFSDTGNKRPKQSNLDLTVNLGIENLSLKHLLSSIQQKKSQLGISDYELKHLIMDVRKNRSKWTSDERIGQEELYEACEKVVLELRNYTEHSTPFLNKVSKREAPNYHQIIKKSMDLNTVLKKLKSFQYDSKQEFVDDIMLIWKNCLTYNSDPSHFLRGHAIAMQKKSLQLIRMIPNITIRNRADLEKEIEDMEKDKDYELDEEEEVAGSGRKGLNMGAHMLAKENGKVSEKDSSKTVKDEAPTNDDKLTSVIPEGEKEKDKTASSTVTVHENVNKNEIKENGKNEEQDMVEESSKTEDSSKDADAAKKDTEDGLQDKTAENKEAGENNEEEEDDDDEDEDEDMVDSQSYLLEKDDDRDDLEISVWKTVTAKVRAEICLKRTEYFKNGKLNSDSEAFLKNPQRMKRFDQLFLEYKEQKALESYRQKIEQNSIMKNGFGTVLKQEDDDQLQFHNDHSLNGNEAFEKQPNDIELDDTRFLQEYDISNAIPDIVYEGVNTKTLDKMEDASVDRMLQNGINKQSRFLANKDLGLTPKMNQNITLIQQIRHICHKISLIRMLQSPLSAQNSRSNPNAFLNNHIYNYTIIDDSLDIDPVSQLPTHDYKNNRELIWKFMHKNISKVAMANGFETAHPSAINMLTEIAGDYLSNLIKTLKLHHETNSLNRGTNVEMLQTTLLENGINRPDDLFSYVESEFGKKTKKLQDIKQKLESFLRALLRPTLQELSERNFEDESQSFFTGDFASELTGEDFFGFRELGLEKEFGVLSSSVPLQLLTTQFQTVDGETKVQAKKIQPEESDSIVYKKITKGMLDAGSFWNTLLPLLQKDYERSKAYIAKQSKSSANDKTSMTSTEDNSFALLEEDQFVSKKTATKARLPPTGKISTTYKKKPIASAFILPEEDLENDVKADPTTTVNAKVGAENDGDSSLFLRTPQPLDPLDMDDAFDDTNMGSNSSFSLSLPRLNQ

One experiment deals with T1, TAP-tagged Ada2 (S. cerevisiae, UniProt Q02336 1-434).
T1 construct: Ada2, SAGA component, S. cerevisiae; TAP-tagged ADA2; Held on IgG beads, released with TEV protease, then held on calmodulin beads, so part of the TAP tag is cut off during the purification; also called TAP-Ada2; TAP-ADA2; source: S. cerevisiae strain with TAP-tagged ADA2 (bought: Open Biosystems YSC1178-202230655; crossed with CY6582 for the tra1 Q3 strain CY7042), in lysate of cells ground in …
T1 sequence (looked up): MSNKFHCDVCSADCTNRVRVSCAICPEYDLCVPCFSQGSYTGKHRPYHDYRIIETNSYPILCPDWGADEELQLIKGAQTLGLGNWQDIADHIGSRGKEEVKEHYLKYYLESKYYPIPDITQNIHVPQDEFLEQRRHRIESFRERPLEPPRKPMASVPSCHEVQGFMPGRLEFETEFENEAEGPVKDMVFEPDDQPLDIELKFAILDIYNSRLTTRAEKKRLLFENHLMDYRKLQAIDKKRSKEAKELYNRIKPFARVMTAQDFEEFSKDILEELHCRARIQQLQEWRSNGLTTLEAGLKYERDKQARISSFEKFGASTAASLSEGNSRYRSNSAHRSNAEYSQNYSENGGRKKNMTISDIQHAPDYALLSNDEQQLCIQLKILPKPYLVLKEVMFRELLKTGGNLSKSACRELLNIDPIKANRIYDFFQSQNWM
As to the kind of experiment: affinity purification with mass spectrometry; tandem affinity purification of TAP-tagged Epl1 or Ada2 from lysates of TRA1 or tra1 Q3 strains (260 mg or 170 mg protein): IgG beads 2 h at 4°, IPP150 (10 mM Tris-HCl pH 8.0, 150 mM NaCl), TEV cleavage, calmodulin beads, EGTA elution; SDS-PAGE, Coomassie Brilliant Blue; bands identified by MALDI mass spectrometry or predicted from mass; band intensity by ImageJ.

Experiment [1] addresses T2, TAP-tagged Epl1 (S. cerevisiae) (UniProt P43572).
T2 sequence: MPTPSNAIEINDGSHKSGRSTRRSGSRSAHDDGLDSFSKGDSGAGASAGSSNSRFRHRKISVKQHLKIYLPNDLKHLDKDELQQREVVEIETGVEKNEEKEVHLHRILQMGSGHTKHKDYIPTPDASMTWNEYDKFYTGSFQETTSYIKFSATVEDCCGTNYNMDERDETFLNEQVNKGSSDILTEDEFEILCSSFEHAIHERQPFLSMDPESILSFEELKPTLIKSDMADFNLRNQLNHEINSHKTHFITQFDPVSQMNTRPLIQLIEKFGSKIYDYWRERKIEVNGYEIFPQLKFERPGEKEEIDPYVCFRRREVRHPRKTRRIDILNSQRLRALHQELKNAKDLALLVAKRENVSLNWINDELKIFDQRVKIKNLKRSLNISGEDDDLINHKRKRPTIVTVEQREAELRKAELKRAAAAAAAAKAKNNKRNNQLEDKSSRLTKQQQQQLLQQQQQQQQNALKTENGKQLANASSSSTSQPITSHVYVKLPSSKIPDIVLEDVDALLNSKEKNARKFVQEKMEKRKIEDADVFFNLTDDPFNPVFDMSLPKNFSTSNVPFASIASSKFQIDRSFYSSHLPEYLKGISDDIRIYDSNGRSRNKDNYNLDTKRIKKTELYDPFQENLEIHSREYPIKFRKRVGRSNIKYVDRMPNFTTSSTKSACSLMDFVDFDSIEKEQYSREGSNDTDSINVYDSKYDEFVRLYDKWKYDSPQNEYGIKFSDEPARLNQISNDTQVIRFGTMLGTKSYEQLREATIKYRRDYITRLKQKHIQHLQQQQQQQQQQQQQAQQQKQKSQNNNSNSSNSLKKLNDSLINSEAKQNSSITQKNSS
Described as above.

Results are given in words; binding and its absence hold for the method and conditions named. Binding seen in cells or lysates may run through a third protein. These calls come from enrichment with a bait or labelling near it, and not all partners need be listed. Tags and fused reporters may be left off the sequences shown.

For the molecule “Tra1 (wild type) (from UniProt P38811 1-3744)”, the binding entry with TAP-tagged Ada2 is given as “binds”. With “Full-length Spt7 (Spt7^SAGA) (from UniProt P35177 1-1332)”, the binding entry with TAP-tagged Ada2 is “binds”.

B1: Swc4 (protein, UniProt P53201 1-476)
chain: MSSSDIFDVLNIKQKSRSPTNGQVSVPSSSAANRPKPQVTGMQRELFNLLGENQPPVVIKSGNNFKEKMLSTSKPSPWSFVEFKANNSVTLRHWVKGSKELIGDTPKESPYSKFNQHLSIPSFTKEEYEAFMNENEGTQKSVESEKNHNENFTNEKKDESKNSWSFEEIEYLFNLCKKYDLRWFLIFDRYSYNNSRTLEDLKEKFYYTCRNYFKASDPSNPLLSSLNFSAEKEIERKKYLQRLLSRSAAEIAEEEALVVESKKFEMAAKRTLAERESLLRLLDSPHSDQTITQYLTSQGMSQLYNALLADKTRKRKHDLNIPENPWMKQQQQFAQHRQLQQLNVKKSEVKENLSPKKTKRQRQEMQTALKRKSESAYAEQLLKDFNSDERKALGVITHGEKLSPGVYLRSTKLSTFKPALQNKILAILQELSLPSRPVMPSFDVMERQEELLKKINTLIDLKKHVDKYEAGMSITK
As for B1, the binding entry in experiment [1] is “binds”.
